Data published in paper PMC11685440.
The exact form of at least one protein or probe is not confirmed. For part of these data: At least one verdict rests on a figure or table, not on a statement of the authors.

Columns and labels:
Assay in all cases: EMSA
[1] = test system: MBP-PmARF1 DBD (Penium margaritaceum); conditions: concentration series in nM; 20 mM HEPES pH 7.8, 50 mM KCl, 100 mM Tris pH 8.0, 2.5% glycerol, 1 mM DTT, 0.09 mg/ml herring sperm ssDNA, 20 nM Cy5-dsDNA, 4 °C 1 h, 2% agarose 0.5X TBE; recombinant protein; protein details: N-terminal 6xHis-MBP; label: 5'-Cy5 on strand 1
[2] = test system: MBP-SmARF3 DBD (Spirogloea muscicola); conditions: titration 5-100 uM as printed, cooperative, concentration-dependent; 20 mM HEPES pH 7.8, 50 mM KCl, 100 mM Tris pH 8.0, 2.5% glycerol, 1 mM DTT, 0.09 mg/ml herring sperm ssDNA, 20 nM Cy5-dsDNA, 4 °C 1 h, 2% agarose 0.5X TBE; recombinant protein; protein details: N-terminal 6xHis-MBP; label: 5'-Cy5 on strand 1
[3] = test system: MpARF2 DBD (Marchantia polymorpha); conditions: positive control; 20 mM HEPES pH 7.8, 50 mM KCl, 100 mM Tris pH 8.0, 2.5% glycerol, 1 mM DTT, 0.09 mg/ml herring sperm ssDNA, 20 nM Cy5-dsDNA, 4 °C 1 h, 2% agarose 0.5X TBE; recombinant protein; label: 5'-Cy5 on strand 1

Measured: binding result

GATACACGCTTGTCGGCCAAAGGCCGACAACCACTCA (double strand) [IR7]
binds: all assays above
